This is one part of the list. Further columns of the screen follow, without active or inactive calls. The list favours compounds with an active or inconclusive main result. Potencies come from curve fits of mixed quality, noted in brackets.
Assay: qHTS Assay to Find Inhibitors of Chronic Active B-Cell Receptor Signaling
Settings: ABC-DLBCL IkBa-CBG/CBR reporter, luminescence ratio (green luciferase fused to IkBa over red control in TMD8 lymphoma cells), 4 h
How it was run: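 TMD8 ABC-DLBCL cells carrying doxycycline-inducible green luciferase fused to IkappaBalpha plus unfused red luciferase were exposed to compounds (up to 46 uM) for 4 hrs at 37C. Activity came from the overlap-corrected green/red luminescence ratio.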

[1] = measured here: CBR red luminescence, cell number
[2] = measured here: IkBa-CBG green luminescence

| Compound | AC50 [1] | AC50 [2] |
| --- | --- | --- |
| COC(CNC(=O)CCc1c(C)nc2c(c(C)nn2-c2ccc(C)cc2)c1C)OC | 25.1 µM [rising, single point] | – |
| COc1ccc(-c2nc3ccc(N4CCCC4)cc3c(=O)[nH]2)cc1OC | 0.355 µM [falling, full curve, poor fit] | – |
| CCOc1ccc(NC(=O)CSc2nnc(C3CC3)n2C2CC2)cc1 | 32.6 µM [rising, partial curve, poor fit] | – |
| Nc1nccc(/C=C/c2c(Cl)cccc2Cl)n1 | 35.5 µM [falling, single point] | – |
| COc1ccc(C[C@H]2CN3C(=NC[C@@H]3Cc3ccccc3)N2CCNC(=O)CCC2CCCCC2)cc1 | 35.5 µM [falling, single point] | – |
| Cn1c(=O)[nH]c(=O)c2c1nc([N+](=O)[O-])n2Cc1ccccc1 | 35.5 µM [falling, single point] | – |
| Cc1c(C)c2ccc(OCc3ccc(C(=O)O)o3)c(C)c2oc1=O | 3.16 µM [falling, partial curve] | – |
| CC(=O)Nc1sc(-c2ccc(Cl)cc2)nc1-c1ccccc1 | 1.58 µM [rising, full curve, poor fit] | – |
| O=C(NCCc1csc(-c2ccccc2)n1)c1c(F)cccc1F | 1.41 µM [rising, partial curve, poor fit] | – |
| N=c1ccn(CC(=O)c2ccc(-c3ccccc3)cc2)cc1 | 3.98 µM [falling, full curve] | – |
| COC(=O)c1c(NC(=O)c2ccc(C)cc2)csc1C | 12.6 µM [falling, single point] | – |
| Cc1ccc(-c2nc3sc(CCNC(=O)c4ccc(Br)o4)c(C)n3n2)cc1 | 14.1 µM [falling, single point] | – |
| Cc1noc(NS(=O)(=O)c2ccc(NC(=O)C34CC5CC(C3)CC(n3cnc(Br)n3)(C5)C4)cc2)c1C | 2.59 µM [rising, partial curve] | – |
| COc1ccc(NC(=O)COc2ccc(-c3nn(C)c(=O)c4ccccc34)cc2)cc1 | 1.78 µM [rising, full curve, poor fit] | – |
| COc1ccc(-c2noc(-c3cc(Cl)ccc3Cl)n2)cc1OC | 20.6 µM [rising, partial curve, poor fit] | – |
| CC(=O)/C(=N\Nc1ccccc1)Oc1ccc([N+](=O)[O-])cc1 | 13 µM [falling, partial curve] | 20.6 µM [rising, single point] |
| O=C(O)c1[nH]c2ccccc2c1C=NCc1ccccc1Cl | 35.5 µM [falling, single point] | – |
| O=C(Nc1ccccc1N1CCCC1)c1cc(Cl)ccc1Cl | 35.5 µM [rising, single point] | – |
| Cc1[nH][nH]c(=O)c1C(c1ccc(-c2ccc(Cl)cc2Cl)o1)c1c(C)[nH][nH]c1=O | 2.31 µM [falling, partial curve, poor fit] | – |
| CC(CCc1ccccc1)NC(=O)C1CCCN(C(=O)c2cc3sccc3n2C)C1 (stereo not given) | 3.66 µM [falling, single point] | – |
| O=C(Nc1ccc(Cl)cc1)N1CCSCC1 | 6.51 µM [falling, single point] | – |

Part of the list above, set out differently:
Compound | AC50 [1] | AC50 [2]
Cc1noc(NS(=O)(=O)c2ccc(NC(=O)C34CC5CC(C3)CC(n3cnc(Br)n3)(C5)C4)cc2)c1C | 2.59 µM [rising, partial curve] | –
Cc1[nH][nH]c(=O)c1C(c1ccc(-c2ccc(Cl)cc2Cl)o1)c1c(C)[nH][nH]c1=O | 2.31 µM [falling, partial curve, poor fit] | –

(continued)

| Compound | AC50 [1] | AC50 [2] |
| --- | --- | --- |
| Cc1ccc(S(=O)(=O)Nc2ccc(Cl)cc2C(=O)c2ccc(F)cc2)cc1 | 16.4 µM [falling, single point] | – |
| O=C(COc1ccc2c(-c3ccccc3)cc(=O)oc2c1)Nc1ccc(CN2CCOCC2)cc1 | 0.355 µM [rising, full curve, poor fit] | – |
| Cc1cc(N2CCCCC2)nc2ccc(NC(=O)c3cccc(Cl)c3)cc12 | 35.5 µM [falling, single point] | – |
| O=C(Nc1ccc2c(c1)OCCO2)c1cnccn1 | 29.1 µM [falling, single point] | – |
| Cc1cccc(C(=O)Nc2nc(C)c(C(=O)Nc3ccc4c(c3)CCC4)s2)c1 | 1.26 µM [falling, full curve] | – |
| CCC(=C(c1ccc(OC)cc1)c1ccc(OC)cc1)c1cn(CC(O)CN(CCO)CCO)c2ccccc12 (stereo not given) | 11.2 µM [falling, partial curve, poor fit] | – |
| CC(C)CCSc1cc(NCCO)c([N+](=O)[O-])c2nonc12 | 35.5 µM [falling, single point] | – |
| O=C1CCCN1CCCN1CC(C(=O)N(CCO)Cc2ccccc2)CCC1=O (stereo not given) | 5.01 µM [falling, single point] | – |
| C=CCN1C(=O)C(Cc2ccccc2Cl)SC1=Nc1ccc(C(=O)O)cc1 (stereo not given) | 14.1 µM [falling, single point] | – |
| CCOc1ccc(CCNC(=O)C2CC(C)=CCC2C(=O)O)cc1OCC (stereo not given) | 14.1 µM [rising, single point] | – |
| NC(=O)c1ccc(NC(=O)COC(=O)CC23CC4CC(CC(Br)(C4)C2)C3)cc1 | 29.1 µM [rising, single point] | – |
| c1ccc(-c2ccc(OCCN3CCOCC3)cc2)cc1 | 3.98 µM [rising, full curve, poor fit] | – |
| CCc1ccc(NC(=O)C(=S)NC2CCCCC2)cc1 | 0.708 µM [rising, full curve] | – |
| CCOC(=O)c1c(NC(=O)C(Sc2ccccc2)c2ccccc2)sc(C(=O)N(C)C)c1C (stereo not given) | 20.6 µM [rising, single point] | – |
| CCN(CC(=O)NCc1ccc(Cl)cc1)C(=O)CSc1ccc(Br)cc1 | 25.1 µM [falling, single point] | – |
| O=C(NCc1ccccc1Cl)c1ccc2nc[nH]c2c1 | 9.2 µM [falling, partial curve] | – |
| CCN1C(=O)C2C(C1=O)N1C(c3cccs3)C3C(=O)N(CC)C(=O)C3N1C2c1cccs1 (stereo not given) | 11.2 µM [falling, partial curve, poor fit] | – |
| Cc1ccc(-c2cc(N)n(-c3ccc(F)cc3)n2)cc1 | 10 µM [falling, partial curve, poor fit] | – |
| O=C(Nc1ccccc1)C1=C[C@@H](c2ccc(Br)cc2)C[C@@H](OCc2ccc(CO)cc2)O1 | 14.1 µM [falling, single point] | – |
| Cc1c(C(=O)NCC2CCCO2)oc2ccccc12 (stereo not given) | 29.1 µM [rising, single point] | – |
| Oc1ccc2c(c1)oc1cc(O)ccc12 | 20.6 µM [falling, partial curve, poor fit] | – |

| Compound | AC50 [1] | AC50 [2] |
| --- | --- | --- |
| CC(C)CCNC(=O)c1ccc(-c2ccccc2)cc1 | 4.47 µM [rising, full curve, poor fit] | – |
| O=C(N/N=C/c1cccc([N+](=O)[O-])c1O)c1cccs1 | 2.91 µM [falling, partial curve, poor fit] | – |
| Cc1c(NC(=O)c2cc(-c3ccccc3)nc3ccccc23)c(=O)n(-c2ccccc2)n1C | 2.31 µM [rising, full curve, poor fit] | – |
| NS(=O)(=O)c1ccc(Cl)c(C(=O)Nc2ccccc2[N+](=O)[O-])c1 | 25.1 µM [rising, single point] | 12.6 µM [falling, partial curve, poor fit] |
| Cc1ccc(C)c(OCC(=O)N/N=C/c2ccsc2)c1 | 11.2 µM [rising, partial curve, poor fit] | – |
| Cc1ccc(C)c(N(C(=O)Cn2nnc(-c3cccs3)n2)C(C(=O)NC2CC2)c2ccc(C)o2)c1 (stereo not given) | 13 µM [falling, single point] | – |
| COc1cccc2c(=O)c(C(=O)NCc3cccs3)c[nH]c12 | 5.01 µM [falling, full curve, poor fit] | – |
| CCOc1ccc(N2C(=O)CC(N(Cc3ccco3)C(=O)CC)C2=O)cc1 (stereo not given) | 35.5 µM [rising, single point] | – |
| O=C(Nc1ccc(-c2cn3ccccc3n2)cc1)c1cccs1 | 20 µM [falling, single point] | – |
| CC1CCCC(NC(=O)c2ccc3c(c2)NC(=O)CS3)C1C (stereo not given) | 11.2 µM [falling, partial curve, poor fit] | – |
| O=C(CSc1nnc(-c2ccccn2)o1)Nc1ccccc1F | 7.08 µM [falling, partial curve] | – |
| O=C1NC(=O)/C(=C\c2ccc(OCc3cnc(Cl)s3)cc2)S1 | 28.2 µM [rising, single point] | – |
| O=C(Cn1c(C(=O)NCc2ccco2)cc2sccc21)c1ccccc1 | 29.1 µM [falling, single point] | – |
| O=C(NNC(=O)c1ccc(Br)o1)c1ccc(NC(=O)c2ccccc2)cc1 | 20 µM [rising, partial curve, poor fit] | – |
| Cc1cnc(NC(=O)CSc2nnc(Cc3ccccc3)o2)s1 | 2.59 µM [rising, partial curve, poor fit] | – |
| CN1C(=O)c2ccccc2Sc2ccc(NC(=O)c3ccccc3F)cc21 | 17.8 µM [falling, partial curve, poor fit] | – |
| NNC(=O)[C@H](Cc1ccccc1)NC(=O)Nc1ccc2c(c1)OCCO2 | 35.5 µM [falling, single point] | – |
| COc1ccccc1-n1c(SCC(=O)NC2CCS(=O)(=O)C2)nc2cc([N+](=O)[O-])ccc21 (stereo not given) | 5.8 µM [falling, full curve] | – |
| O=C(Nc1ccc([N+](=O)[O-])cc1)c1ccc(Cn2cc([N+](=O)[O-])cn2)cc1 | 14.1 µM [falling, partial curve, poor fit] | – |
| CC(=O)Nc1ccc(C(=S)NCCCO)cc1 | 39.8 µM [rising, partial curve, poor fit] | – |
| Cc1cc(C(=O)Nc2ccc3ccccc3c2)oc1C | 22.4 µM [falling, single point] | – |

Source: PubChem BioAssay AID493014 (National Center for Advancing Translational Sciences (NCATS), 2011)
